Assay results as given in article PMC9101030, “Myo5b Transports Fibronectin-Containing Vesicles and Facilitates FN1 Secretion from Human Pleural Mesothelial Cells” (International Journal of Molecular Sciences, 2022).
Results are given in words; binding and its absence hold for the method and conditions named. In cells and extracts the contact can be indirect. Some results given as binding are weak or reduced against the parent protein; the word gives no strength.

By UniProt entry, the sequences of proteins in these tests, tags left out. Residues count along the entry.
UniProt P02751, residues 32-2477: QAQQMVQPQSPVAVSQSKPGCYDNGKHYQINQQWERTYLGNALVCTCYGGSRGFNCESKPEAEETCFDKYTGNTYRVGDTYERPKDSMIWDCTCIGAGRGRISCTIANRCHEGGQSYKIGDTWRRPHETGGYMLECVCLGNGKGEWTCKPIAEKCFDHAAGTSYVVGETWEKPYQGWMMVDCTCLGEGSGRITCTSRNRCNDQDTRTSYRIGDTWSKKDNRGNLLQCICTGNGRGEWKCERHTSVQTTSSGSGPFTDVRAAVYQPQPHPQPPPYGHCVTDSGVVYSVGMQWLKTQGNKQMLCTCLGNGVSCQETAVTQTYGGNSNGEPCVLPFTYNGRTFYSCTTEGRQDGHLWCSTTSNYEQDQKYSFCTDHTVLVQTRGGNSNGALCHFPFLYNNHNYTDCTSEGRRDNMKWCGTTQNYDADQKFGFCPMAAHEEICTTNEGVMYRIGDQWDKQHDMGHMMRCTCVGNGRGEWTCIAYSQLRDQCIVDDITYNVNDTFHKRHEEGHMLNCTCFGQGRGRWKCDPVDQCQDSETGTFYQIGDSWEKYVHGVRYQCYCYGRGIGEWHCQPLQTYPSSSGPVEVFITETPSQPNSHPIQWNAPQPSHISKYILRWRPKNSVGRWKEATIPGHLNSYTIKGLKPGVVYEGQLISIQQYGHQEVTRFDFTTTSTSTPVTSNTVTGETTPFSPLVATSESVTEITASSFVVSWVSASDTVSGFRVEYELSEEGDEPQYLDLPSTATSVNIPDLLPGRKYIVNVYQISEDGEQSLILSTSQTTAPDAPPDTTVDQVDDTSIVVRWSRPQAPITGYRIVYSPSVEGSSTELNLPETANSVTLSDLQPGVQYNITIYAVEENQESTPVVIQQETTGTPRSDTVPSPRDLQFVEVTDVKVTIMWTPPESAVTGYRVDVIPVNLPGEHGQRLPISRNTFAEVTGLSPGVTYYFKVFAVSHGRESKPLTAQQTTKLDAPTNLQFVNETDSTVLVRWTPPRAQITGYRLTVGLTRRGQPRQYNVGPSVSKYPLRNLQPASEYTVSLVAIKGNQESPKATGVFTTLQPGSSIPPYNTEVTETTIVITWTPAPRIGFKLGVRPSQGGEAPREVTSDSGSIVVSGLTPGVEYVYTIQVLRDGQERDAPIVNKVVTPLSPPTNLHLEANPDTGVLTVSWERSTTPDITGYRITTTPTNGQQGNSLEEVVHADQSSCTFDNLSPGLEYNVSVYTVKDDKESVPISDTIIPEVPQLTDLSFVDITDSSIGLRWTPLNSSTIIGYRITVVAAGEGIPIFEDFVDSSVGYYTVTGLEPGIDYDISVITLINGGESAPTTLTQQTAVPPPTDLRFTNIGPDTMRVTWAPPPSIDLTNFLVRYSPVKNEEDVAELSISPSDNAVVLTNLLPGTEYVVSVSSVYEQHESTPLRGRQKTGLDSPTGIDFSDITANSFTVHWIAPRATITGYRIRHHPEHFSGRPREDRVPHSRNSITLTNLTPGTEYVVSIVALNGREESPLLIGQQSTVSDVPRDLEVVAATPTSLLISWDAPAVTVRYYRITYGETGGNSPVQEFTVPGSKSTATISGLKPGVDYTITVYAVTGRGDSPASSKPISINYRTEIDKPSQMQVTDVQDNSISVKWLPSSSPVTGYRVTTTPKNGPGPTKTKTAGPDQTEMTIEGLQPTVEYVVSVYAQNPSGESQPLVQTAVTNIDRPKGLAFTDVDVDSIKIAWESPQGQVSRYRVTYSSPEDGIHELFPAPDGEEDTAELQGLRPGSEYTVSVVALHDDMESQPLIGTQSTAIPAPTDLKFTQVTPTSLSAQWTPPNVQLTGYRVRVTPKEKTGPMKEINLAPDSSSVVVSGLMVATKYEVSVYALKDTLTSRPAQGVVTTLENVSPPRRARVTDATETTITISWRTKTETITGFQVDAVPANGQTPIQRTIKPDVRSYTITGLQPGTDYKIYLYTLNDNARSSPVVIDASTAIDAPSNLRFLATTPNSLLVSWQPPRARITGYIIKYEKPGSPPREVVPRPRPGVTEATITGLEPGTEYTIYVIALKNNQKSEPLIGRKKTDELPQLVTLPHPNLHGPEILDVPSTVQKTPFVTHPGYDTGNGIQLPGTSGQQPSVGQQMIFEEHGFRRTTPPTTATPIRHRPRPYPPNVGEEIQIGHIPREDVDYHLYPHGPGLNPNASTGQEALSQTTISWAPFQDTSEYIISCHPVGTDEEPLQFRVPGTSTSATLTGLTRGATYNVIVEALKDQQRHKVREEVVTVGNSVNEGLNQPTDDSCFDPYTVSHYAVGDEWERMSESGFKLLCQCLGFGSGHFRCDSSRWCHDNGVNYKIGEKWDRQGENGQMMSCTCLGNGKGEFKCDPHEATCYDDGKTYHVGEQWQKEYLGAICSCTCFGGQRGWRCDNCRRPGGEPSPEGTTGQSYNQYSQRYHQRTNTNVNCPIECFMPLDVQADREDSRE
UniProt Q9ULV0: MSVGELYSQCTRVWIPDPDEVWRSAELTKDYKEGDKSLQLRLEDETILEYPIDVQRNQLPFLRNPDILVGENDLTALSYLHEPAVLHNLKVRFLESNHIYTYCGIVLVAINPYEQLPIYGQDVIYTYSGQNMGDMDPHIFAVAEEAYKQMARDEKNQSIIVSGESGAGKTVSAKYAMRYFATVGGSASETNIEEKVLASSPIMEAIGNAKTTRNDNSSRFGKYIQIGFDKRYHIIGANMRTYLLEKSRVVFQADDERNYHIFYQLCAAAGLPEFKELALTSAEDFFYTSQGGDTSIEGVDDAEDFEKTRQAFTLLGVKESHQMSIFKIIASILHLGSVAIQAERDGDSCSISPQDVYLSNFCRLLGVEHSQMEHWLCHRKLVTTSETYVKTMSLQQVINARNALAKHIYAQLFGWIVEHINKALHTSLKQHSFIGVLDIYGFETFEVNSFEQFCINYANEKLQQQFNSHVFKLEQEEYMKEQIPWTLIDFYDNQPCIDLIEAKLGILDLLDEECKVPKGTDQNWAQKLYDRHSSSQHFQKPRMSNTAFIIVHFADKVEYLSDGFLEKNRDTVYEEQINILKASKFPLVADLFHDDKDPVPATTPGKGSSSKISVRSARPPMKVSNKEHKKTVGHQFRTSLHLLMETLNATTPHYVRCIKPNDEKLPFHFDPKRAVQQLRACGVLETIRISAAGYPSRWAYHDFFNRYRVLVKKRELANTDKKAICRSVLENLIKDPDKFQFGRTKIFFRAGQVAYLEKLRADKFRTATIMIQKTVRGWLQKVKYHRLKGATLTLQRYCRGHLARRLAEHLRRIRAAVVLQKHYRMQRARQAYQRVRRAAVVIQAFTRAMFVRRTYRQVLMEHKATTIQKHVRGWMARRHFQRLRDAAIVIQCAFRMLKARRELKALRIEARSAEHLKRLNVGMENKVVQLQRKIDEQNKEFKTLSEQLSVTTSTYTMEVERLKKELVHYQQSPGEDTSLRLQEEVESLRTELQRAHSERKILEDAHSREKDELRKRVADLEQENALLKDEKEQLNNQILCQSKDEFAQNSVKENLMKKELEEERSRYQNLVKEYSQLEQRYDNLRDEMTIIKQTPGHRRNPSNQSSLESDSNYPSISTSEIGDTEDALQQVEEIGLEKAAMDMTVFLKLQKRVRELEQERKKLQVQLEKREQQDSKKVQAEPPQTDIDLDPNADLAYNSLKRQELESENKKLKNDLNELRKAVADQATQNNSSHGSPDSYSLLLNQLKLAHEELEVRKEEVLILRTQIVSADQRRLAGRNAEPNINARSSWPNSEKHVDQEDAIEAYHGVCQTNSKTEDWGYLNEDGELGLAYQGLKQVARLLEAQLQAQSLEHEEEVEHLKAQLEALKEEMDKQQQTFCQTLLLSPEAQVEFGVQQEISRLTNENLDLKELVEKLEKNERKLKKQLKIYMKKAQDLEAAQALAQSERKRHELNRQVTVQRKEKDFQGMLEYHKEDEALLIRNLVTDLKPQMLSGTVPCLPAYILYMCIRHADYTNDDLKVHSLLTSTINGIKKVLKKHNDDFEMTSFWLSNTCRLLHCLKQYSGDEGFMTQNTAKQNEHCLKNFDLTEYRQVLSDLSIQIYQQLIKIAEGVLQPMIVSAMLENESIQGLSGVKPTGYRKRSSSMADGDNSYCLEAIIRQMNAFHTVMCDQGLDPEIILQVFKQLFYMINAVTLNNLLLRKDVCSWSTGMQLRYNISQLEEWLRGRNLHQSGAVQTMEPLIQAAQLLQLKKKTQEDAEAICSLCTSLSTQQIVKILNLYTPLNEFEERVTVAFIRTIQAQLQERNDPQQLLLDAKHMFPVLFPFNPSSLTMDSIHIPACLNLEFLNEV

Biological target: fibronectin (FN1), endogenous in human pleural mesothelial cells (human (endogenous in HPMCs)) (UniProt P02751)
Assay: proximity ligation; Duolink In situ Red kit on fixed, permeabilised HPMCs treated with PBS or TGF-β (5 ng/mL); primary antibodies to the two proteins or to the V5 tag, anti-mouse MINUS and anti-rabbit PLUS probes; confocal imaging

binding: binds
Substance: myosin 5b (Myo5b), endogenous in human pleural mesothelial cells (from UniProt Q9ULV0 1-1848)
